# Screening data, single-dose tests

From ChEMBL document CHEMBL3988442, “University of Dundee, Small-Polar-MMV Screening Library” (2021).

A: 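Whole-cell growth test on Mycobacterium tuberculosis, read after 4 days in a medium based on cholesterol and the lipid DPPC; the read-out is not stated. Compounds at 500 µM. Higher reads as more growth inhibition (inferred: compounds with an IC50 in retests scored well above the rest). Of about 18,000 compounds tested this way, about 900 (5%) reached 50% or more in at least one test.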
B: 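Whole-cell growth test on Mycobacterium tuberculosis, read after 3 days in glucose-containing 7H9 medium; the read-out is not stated. Compounds at 500 µM. The record gives no direction; compounds that gave an IC50 in retests scored well above the rest, so higher reads as more growth inhibition. Of about 18,000 compounds tested this way, about 1,400 (7.9%) reached 50% or more in at least one test.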

Values are the deposited “Percent Effect”, in %. The controls that fix the scale are not given in the record; negative values are as filed. Compounds were drawn at random from those tested, without regard to their results.

structure | A | B
Cc1cc(OC(F)F)c(C2NC(=O)CN2C)cc1C (centres undefined) | 20.64% | 62.92%
O=C(NCC1CCNCC1)Nc1nncs1 | -2.067% | -0.7878%
CC(C)CCn1ccc(NC(=O)C2(O)CCC2)n1 | 65.4% | 48.76%
CCc1ccccc1S(=O)(=O)N(C)C(C)CN (centres undefined) | 21.2% | 43.69%
OCC1CCN(c2ncccc2NC2CCCC2)CC1 | 0.7885% | -9.552%
NC(=O)CCSCc1ccn(-c2ccccc2)n1 | 86.71% | 71.02%
NC(=O)c1cccc(Cn2cc(Br)ccc2=O)c1 | -18.54% | 19.33%
CN(C(=O)c1cccc(F)c1F)S(C)(=O)=O | -1.55% | 12.38%
CCN(CCOC)C(=O)c1cc(-c2cccn2C)n[nH]1 | -12.8% | -0.07939%
CCn1ncnc1CN1CCCC(CO)(CCOC)C1 (centres undefined) | -15.04% | -1.24%
CN[C@@H]1CCO[C@H]1c1cccnc1 | -12.6% | -5.565%
CN(C)C(=O)c1ccc(OCC2CCCO2)cc1 (centres undefined) | 6.111% | -0.2216%
NC(=O)COc1ccc(CNC2CCCC2)cc1 | -7.731% | -1.901%
COc1ccc(CC(=O)N2CCOC(C)C2)cc1 (centres undefined) | -8.683% | -0.1157%
CCOc1cccc(NC(=O)Cc2ccccc2O)n1 | -0.2011% | -5.807%
CC(NC(=O)c1cccn1C(C)C)c1ncon1 (centres undefined) | -13.47% | 8.42%
CN(C)c1ccnc(NC(=O)c2cnsn2)c1 | -0.7557% | 5.229%
N#CC1COCCN1C(=O)c1cc(Cl)c2c(c1)OCO2 (centres undefined) | -2.492% | -3.908%
NCCc1ccc(Br)o1 | -6.908% | 0.3495%
CC(=O)N1CCC(NC(=O)NCc2sccc2C)CC1 | 0.35% | 12.35%
COC(=O)N1CCC(NS(=O)(=O)CC(C)C)C1 (centres undefined) | -22.67% | -5.027%
O=C(NCc1cn2ccccc2n1)C1CC1 | 1.84% | 4.34%
CNC(=O)NC(=O)C(C)Sc1nnc(NCC(C)C)s1 (centres undefined) | 8.239% | 3.508%
CCC(N)(CC)CNS(=O)(=O)c1ccc2c(c1)CCO2 | -1.382% | -1.322%
O=C1C(N2CCNCC2)CCCN1C1CCOCC1 (centres undefined) | -11.7% | -2.4%
Cc1c(C(=O)NC(C)C)nnn1Cc1ccccc1 | -0.7757% | 3.073%
CCOCCCC(=O)NCCC(=O)Nc1ccccc1 | -7.063% | -3.07%
CC(C)c1nc(CN2CCS(=O)(=O)CC2)co1 | -0.6641% | 10.59%
CC(C)(C)NC(=O)CN1CCN(CCC#N)CC1 | 0.6701% | 5.698%
Cc1noc(C)c1CNC(=O)c1csc(S(N)(=O)=O)c1 | 16.6% | 64.63%
CN(CCN)CC1CCCO1 (centres undefined) | -14.34% | -10.84%
Cc1cnc2c(c1)NC(=O)CC(C)N2 (centres undefined) | 3.159% | 5.867%
CCC(NC(=O)CCSC)c1ncnn1C (centres undefined) | -1.823% | -8.58%
Nc1ccc(N2CCCCC2)cn1 | -14.67% | 8.084%
Cc1nc(CN2CCC(O)(CN3CCCC3)CC2)c[nH]1 | -8.07% | -9.333%
COc1c(C)cc(C(=O)N[C@@H]2CC[C@@H](N)C2)cc1C | 0.582% | 19.67%
CCOC(C)C(=O)Nc1ncccc1F (centres undefined) | -11.89% | -9.45%
CC(C)(C)OC(=O)NCCC1CC(=O)C1 | 21.92% | 17.46%
CN1CCC=C(CCNC(=O)COc2ccccc2)C1 | -4.577% | 11.2%
Cc1cc(C(=O)NCc2ncnn2C)c(C)cc1Br | -2.349% | 1.559%
CCCNC(=O)c1nnn(-c2ccccc2OC)c1C | 68.11% | 78.8%
Cc1cc(NC2CCS(=O)(=O)C2)nc2ccccc12 (centres undefined) | 0.3288% | 39.69%
O=S(=O)(NCc1nccs1)N1CCc2ccccc2C1 | 54.9% | 75.93%
Cn1cncc1CCNC(=O)c1cncc(F)c1 | -10.74% | -5.005%
COCCC(=O)c1ccc(F)cc1 | 3.332% | -4.923%
O=C(NC1CCSCC1)c1ccc(N2CCCC2)nn1 | -5.816% | -8.045%
CN(C(=O)Cc1ccc(Cl)cc1Cl)C1CCS(=O)(=O)C1 (centres undefined) | 20.64% | 24.18%
CCOC(=O)N1CCN(C(=O)c2ccccc2O)CC1 | 18.5% | 43.89%
NCCNCC(F)(F)F | -13.96% | -6.242%
CCc1noc(C)c1C(=O)N1CCN(C)CC1 | 10.37% | 10.67%
CC(C)Oc1cc(N2C[C@@H](C)[C@@](C)(O)C2)nc(N)n1 | 5.194% | 9.096%
Cc1ccccc1C(=O)N[C@H](CO)C(C)C | 8.565% | 9.113%
c1ccc2ncc(-c3nc4c([nH]3)CCNC4)cc2c1 | -8.037% | 11.3%
C=C(C)CSc1nnnn1Cc1ccco1 | 74.03% | 70.81%
COCC1CCCN(C(=O)Cc2ccccc2O)C1 (centres undefined) | -2.122% | 15.71%
COc1ccc(CCN)c(OC)c1OC | 92.22% | 88.92%
O=C(c1cn[nH]c1)N1CCC(O)(c2ccccn2)CC1 | 14.86% | 5.616%
Cc1cc(N(CCO)Cc2cccnc2)nc(C)n1 | 6.898% | 5.791%
CN(C)C1CCN(c2ccc(N)nc2)CC1 | -4.424% | -18.77%
Cc1cc(NC(=O)NC2CCN(C3CC3)C2)no1 (centres undefined) | 11.82% | 14.2%
COCC(=O)NC(Cc1ccccc1)[C@H]1C[C@H](O)C1 (some centres undefined) | 10.59% | 18.11%
CO[C@@H]1CCCC[C@@H]1CN | -2.539% | 2.226%
NC1CCN(CC2CCCO2)CC1 (centres undefined) | -8.957% | -2.325%
CN(C)C1CCN(CC(=O)NCCc2ccnn2C)C1 (centres undefined) | 0.75% | -2.475%
CC(C)(C#N)CCCSc1cnn[nH]1 | 29.43% | 25.99%
Cc1cc(C)c(C#N)c(N2CCOCC(CO)C2)n1 (centres undefined) | 51.12% | 50.34%
Cc1c(Cl)c(C(=O)N2CCCCC2)nn1C | 19.27% | 13.18%
NCCNc1nc2ccccc2s1 | 10.5% | 10.47%
Cc1cc(NC(=O)Nc2cnn(C)c2)n(C)n1 | -5.885% | -8.6%
CC(C)(C(=O)N1CC[S+]([O-])C(C)(C)C1)c1ccccc1 (centres undefined) | -5.133% | 2.576%
CC(Nc1ccc(C#N)cn1)c1ccc2c(c1)OCO2 (centres undefined) | 78.7% | 76.86%
Cc1cc(F)ccc1C(=O)Nc1cccc(CO)n1 | -11.53% | -6.475%
Cc1cccc(CCN)c1 | 0.2435% | -3.792%
CCn1nccc1[C@@H]1OCCC[C@H]1CO | -13.95% | -6.846%
COc1ncccc1NS(=O)(=O)c1cccc(Cl)c1 | -12.27% | -15.38%
CC(=O)N(CC1CCCN1)C1CC1 (centres undefined) | 8.841% | 14.07%
CCC(=O)OC(C)C(=O)Nc1ccc2c(c1)OCCO2 (centres undefined) | 14.38% | 17.67%
OC1CCC(Nc2ncccc2Cl)CC1 (centres undefined) | 48.09% | 38.37%
CCC1CCCCCN1CCCS(C)(=O)=O (centres undefined) | -11.46% | 3.635%
NC(=O)c1cc2c([nH]c1=O)CCCC2 | -1.468% | -0.2004%
CC(C#N)CNC(=O)N(C)CCCN1CCCC1 (centres undefined) | 15.1% | 2.055%
OCC(c1cccc(F)c1)N1CCNCC1 (centres undefined) | 7.715% | 5.586%

For reference, 9 entries once more:

structure,A,B
NC(=O)c1cccc(Cn2cc(Br)ccc2=O)c1,-18.54%,19.33%
CC(=O)N1CCC(NC(=O)NCc2sccc2C)CC1,0.35%,12.35%
Cc1cc(N(CCO)Cc2cccnc2)nc(C)n1,6.898%,5.791%
Cc1cccc(CCN)c1,0.2435%,-3.792%
O=C(NCc1cn2ccccc2n1)C1CC1,1.84%,4.34%
O=C(c1cn[nH]c1)N1CCC(O)(c2ccccn2)CC1,14.86%,5.616%
COCC(=O)NC(Cc1ccccc1)[C@H]1C[C@H](O)C1 (some centres undefined),10.59%,18.11%
NC(=O)CCSCc1ccn(-c2ccccc2)n1,86.71%,71.02%
CC(C)c1nc(CN2CCS(=O)(=O)CC2)co1,-0.6641%,10.59%